In the supplement of paper PMC7830784:
Structures can show the parent of a compound that is named as a salt. Some of the results follow. Single values are uncertain here, since repeats match poorly. Starred links: 1 amine or outer side, 2 acyl side, 3 side chain; linkers in the order of their positions; H or OH if unused. Positions of bridges follow the written chain, without caps; N, C: chain ends. Non-standard residues stand in square brackets, D forms with d. Residues, ends and D or L forms follow the SMILES beside them. *: point of attachment. X1 = NC1=N[C@@H]([C@H](N[*:1])C(=O)[*:2])C[C@H](O)N1; ΔAla(Z-3-ureido) = NC(=O)N/C=C(\N)C(=O)O; β3hOrn = NCCC[C@H](N)CC(=O)*; Dap = NC[C@H](N)C(=O)O

The compounds below were run on Brugia pahangi adult female (assay: motility inhibition on day 3 relative to DMSO vehicle; higher = more active). Conditions: 10 µM; 3 days.
With CN1CCC(=C2c3ccccc3CCc3sccc32)CC1 [pizotyline malate] the “motility inhibition on day 3” value was 21.8%. With CN1CCOC(c2ccccc2)c2ccccc2C1 (configuration not stated) [nefopam] the “motility inhibition on day 3” value was 5.18%. With O=S(=O)(O)c1cc(I)c(O)c2ncccc12 [chiniofon] the “motility inhibition on day 3” value was 10.2%. In the case of O=C1[C@H](CC[C@H](O)c2ccc(F)cc2)[C@@H](c2ccc(O)cc2)N1c1ccc(F)cc1 [ezetimibe], the “motility inhibition on day 3” value is reported as 5.79%. With Cc1cnc(C(=O)NCCc2ccc(S(=O)(=O)NC(=O)NC3CCCCC3)cc2)cn1 [Glipizide] the “motility inhibition on day 3” value was 3.67%. O=C(O)COCCN1CCN([C@H](c2ccccc2)c2ccc(Cl)cc2)CC1 [levocetirizine dihydrochloride] was tested, and the “motility inhibition on day 3” value was 2.43%. For CC(O)(P(=O)(O)O)P(=O)(O)O [etidronate disodium], the “motility inhibition on day 3” value was 2.98%. For CCC1NC(=O)c2cc(S(N)(=O)=O)c(Cl)cc2N1 (configuration not stated) [quinethazone], the “motility inhibition on day 3” value was 31.8%. With COC(=O)C1=C(C)NC(C)=C(C(=O)OCC(C)C)C1c1ccccc1[N+](=O)[O-] (configuration not stated) [nisoldipine] the “motility inhibition on day 3” value was 74.9%. In the case of COc1ccc(C(=O)Nc2ccccc2CCC2CCCCN2C)cc1 (configuration not stated) [Encainide hydrochloride], the “motility inhibition on day 3” value is reported as 8.03%. In the case of CN1CCN(c2c(F)cc3c(=O)c(C(=O)O)cn4c3c2SCC4)CC1 [rufloxacin hydrochloride], the “motility inhibition on day 3” value is reported as 13.2%. In the case of COC(=O)C1=C(C)NC(C)=C(C(=O)OCCN(C)Cc2ccccc2)C1c1cccc([N+](=O)[O-])c1 (configuration not stated) [Nicardipine hydrochloride], the “motility inhibition on day 3” value is reported as 9.08%. For O=C1C(O)=C([C@H]2CC[C@H](c3ccc(Cl)cc3)CC2)C(=O)c2ccccc21 [atovaquone], the “motility inhibition on day 3” value was 95.9%. In the case of Cc1ccccc1C(OCCN(C)C)c1ccccc1 (configuration not stated) [orphenadrine citrate], the “motility inhibition on day 3” value is reported as 6.19%. For COc1c2ccoc2cc2oc(=O)ccc12 [bergapten], the “motility inhibition on day 3” value was 24.9%. CN(C)CCOC(c1ccc(Cl)cc1)c1ccccn1 (configuration not stated) [carbinoxamine maleate] was tested, and the “motility inhibition on day 3” value was 3.51%. In the case of O=C1CCc2ccc(OCCCCN3CCN(c4cccc(Cl)c4Cl)CC3)cc2N1 [aripiprazole], the “motility inhibition on day 3” value is reported as 1.8%. In the case of NC(=O)NC1NC(=O)NC1=O (configuration not stated) [allantoin], the “motility inhibition on day 3” value is reported as 8.92%. For O=C1CCC(N2C(=O)c3ccccc3C2=O)C(=O)N1 (configuration not stated) [thalidomide], the “motility inhibition on day 3” value was 3.08%. For CC1(C)S[C@@H]2[C@H](NC(=O)Cc3ccccc3)C(=O)N2[C@H]1C(=O)O [penicillin g potassium], the “motility inhibition on day 3” value was 1.07%. CCCCc1nc(Cl)c(CO)n1Cc1ccc(-c2ccccc2-c2nnn[nH]2)cc1 [losartan] was tested, and the “motility inhibition on day 3” value was < 0%. For C=CCCCCCCCCC(=O)O [undecylenic acid], the “motility inhibition on day 3” value was 28%. In the case of CCN(CC)CCNC(=O)COc1ccc(OC)cc1 [mefexamide], the “motility inhibition on day 3” value is reported as 10.8%. With Cc1nc2n(c(=O)c1CCN1CCC(c3noc4cc(F)ccc34)CC1)CCCC2O (configuration not stated) [paliperidone] the “motility inhibition on day 3” value was 2.03%. In the case of CCOc1ccc(NC(=O)CC(C)O)cc1 (configuration not stated) [bucetin], the “motility inhibition on day 3” value is reported as 5.95%. In the case of Clc1ccc(C(Cn2ccnc2)OCc2csc3c(Cl)cccc23)c(Cl)c1 (configuration not stated) [Sertaconazole nitrate], the “motility inhibition on day 3” value is reported as 99.8%. CC(=O)OCC1=C(C(=O)O)N2C(=O)[C@@H](NC(=O)Cc3cccs3)[C@H]2SC1 [cephalothin sodium] was tested, and the “motility inhibition on day 3” value was 5.21%. For CC(N)C(=O)OC(C)(C)Cc1ccc(Cl)cc1 (configuration not stated) [Alaproclate hydrochloride], the “motility inhibition on day 3” value was 6.23%. With C[C@H]1[C@H](OC(=O)CCC(=O)O)O[C@@H]2O[C@@]3(C)CC[C@H]4[C@H](C)CC[C@@H]1[C@@]24OO3 [Artesunate] the “motility inhibition on day 3” value was < 0%. C[C@H]1[C@H](OC(=O)CCC(=O)O)O[C@@H]2O[C@@]3(C)CC[C@H]4[C@H](C)CC[C@@H]1[C@@]24OO3 [artesunate] was tested, and the “motility inhibition on day 3” value was 8.13%. In the case of O=C(O)CCNC(=O)c1ccc(/N=N/c2ccc(O)c(C(=O)O)c2)cc1 [balsalazide disodium], the “motility inhibition on day 3” value is reported as 17.2%. With CCC(C)n1ncn(-c2ccc(N3CCN(c4ccc(OCC5COC(Cn6cncn6)(c6ccc(Cl)cc6Cl)O5)cc4)CC3)cc2)c1=O (configuration not stated) [Itraconazole] the “motility inhibition on day 3” value was 79.7%. In the case of Cc1cccc(Nc2ccccc2C(=O)O)c1C [mefenamic acid], the “motility inhibition on day 3” value is reported as 35.3%. CNCCCN1c2ccccc2CCc2ccccc21 [Desipramine hydrochloride] was tested, and the “motility inhibition on day 3” value was 0.484%. For O=C1OC(CN2CCOCC2)CN1/N=C/c1ccc([N+](=O)[O-])o1 (configuration not stated) [furaltadone], the “motility inhibition on day 3” value was < 0%. For CC[n+]1c(-c2ccccc2)c2cc(N)ccc2c2ccc(N)cc21 [homidium bromide], the “motility inhibition on day 3” value was 86.7%. In the case of C[n+]1ccccc1C=NO [Pralidoxime iodide], the “motility inhibition on day 3” value is reported as 2.66%. O=C(O)CN(CCN(CC(=O)O)CC(=O)O)CCN(CC(=O)O)CC(=O)O [pentetic acid] was tested, and the “motility inhibition on day 3” value was 3.26%. For C#CCN(C)CCCOc1ccc(Cl)cc1Cl [Clorgyline hydrochloride], the “motility inhibition on day 3” value was 24.9%. With CC(C)NCC(O)c1cc(O)cc(O)c1 (configuration not stated) [metaproterenol] the “motility inhibition on day 3” value was 47%. CCN(CC)Cc1cc(Nc2ccnc3cc(Cl)ccc23)ccc1O [amodiaquine dihydrochloride] was tested, and the “motility inhibition on day 3” value was 30.7%. In the case of O=C(/C=C/C=C/c1ccc2c(c1)OCO2)N1CCCCC1 [piperine], the “motility inhibition on day 3” value is reported as < 0%. In the case of CCC(=O)OCC(=O)[C@@]1(OC(=O)CC)[C@@H](C)C[C@H]2[C@@H]3CCC4=CC(=O)C=C[C@]4(C)[C@@]3(Cl)[C@@H](O)C[C@@]21C [beclomethasone dipropionate], the “motility inhibition on day 3” value is reported as < 0%. COc1ccccc1N1CCN(CCCNc2cc(=O)n(C)c(=O)n2C)CC1 [Urapidil hydrochloride] was tested, and the “motility inhibition on day 3” value was 9.11%. With COc1cc(C)c2c(Oc3cccc(C(F)(F)F)c3)c(OC)cc(NC(C)CCCN)c2n1 (configuration not stated) [Tafenoquine Succinate] the “motility inhibition on day 3” value was 63.1%. CC(=O)Oc1cc2c(s1)CCN(C(C(=O)C1CC1)c1ccccc1F)C2 (configuration not stated) [prasugrel] was tested, and the “motility inhibition on day 3” value was 3.39%. Cn1cnc([N+](=O)[O-])c1Sc1ncnc2[nH]cnc12 [Azathioprine] was tested, and the “motility inhibition on day 3” value was 41.8%. In the case of CC(C)C(=O)Nc1ccc([N+](=O)[O-])c(C(F)(F)F)c1 [flutamide], the “motility inhibition on day 3” value is reported as 36.6%. In the case of OCCN1C[C@H](O)[C@@H](O)[C@H](O)[C@H]1CO [miglitol], the “motility inhibition on day 3” value is reported as < 0%. CC(=O)OCC[N+](C)(C)C [acetylcholine] was tested, and the “motility inhibition on day 3” value was 7.1%. COC(=O)C1=C(C)NC(C)=C(C(=O)OC(C)C)C1c1cccc2nonc12 (configuration not stated) [isradipine] was tested, and the “motility inhibition on day 3” value was 97.1%. With CC(=O)SCC(Cc1ccccc1)C(=O)NCC(=O)OCc1ccccc1 (configuration not stated) [racecadotril] the “motility inhibition on day 3” value was 18.9%. CC1COc2c(N3CCN(C)CC3)c(F)cc3c(=O)c(C(=O)O)cn1c23 (configuration not stated) [ofloxacin] was tested, and the “motility inhibition on day 3” value was 12.6%. With O=C(O)CCCC[C@@H]1SC[C@@H]2NC(=O)N[C@@H]21 [biotin] the “motility inhibition on day 3” value was 8.22%. For CN1CCN(c2cc3c(cc2F)c(=O)c(C(=O)O)cn3-c2ccc(F)cc2)CC1 [difloxacin hydrochloride], the “motility inhibition on day 3” value was 20.6%. C[C@H]1COc2c(N3CCN(C)CC3)c(F)cc3c(=O)c(C(=O)O)cn1c23 [levofloxacin] was tested, and the “motility inhibition on day 3” value was 1.32%. In the case of CN(C)CCCN1c2ccccc2CCc2ccccc21 [Imipramine hydrochloride], the “motility inhibition on day 3” value is reported as < 0%. For NC(CO)C(=O)NNCc1ccc(O)c(O)c1O (configuration not stated) [Benserazide hydrochloride], the “motility inhibition on day 3” value was 0.0134%. For NCCC[C@H](N)CC(=O)N[C@H]1CNC(=O)[C@H]([C@H]2C[C@H](O)NC(N)=N2)NC(=O)/C(=C/NC(N)=O)NC(=O)[C@H](CO)NC(=O)[C@H](CO)NC1=O [viomycin sulfate] (β3hOrn-[Dap]SS[ΔAla(Z-3-ureido)][X1]; lactam 1-C), the “motility inhibition on day 3” value was < 0%. CN(C/C=C/C#CC(C)(C)C)Cc1cccc2ccccc12 [terbinafine hydrochloride] was tested, and the “motility inhibition on day 3” value was 21.9%. In the case of Fc1ccc([C@@H]2CCNC[C@H]2COc2ccc3c(c2)OCO3)cc1 [paroxetine hydrochloride], the “motility inhibition on day 3” value is reported as 14.5%. With Nc1nc(O)c2ncn(CCC(CO)CO)c2n1 [penciclovir] the “motility inhibition on day 3” value was 4.51%. Clc1ccc(Nc2nnc(Cc3ccncc3)c3ccccc23)cc1 [vatalanib dihydrochloride] was tested, and the “motility inhibition on day 3” value was 28.8%. For CN1CCC(OC(c2ccccc2)c2ccccc2)CC1 [diphenylpyraline hydrochloride], the “motility inhibition on day 3” value was < 0%. In the case of O=C(Oc1cccc2cccnc12)c1ccccc1 [benzoxiquine], the “motility inhibition on day 3” value is reported as 56.6%. CCOC(=O)[C@H](CCc1ccccc1)N[C@@H](C)C(=O)N1Cc2cc(OC)c(OC)cc2C[C@H]1C(=O)O [moexipril hydrochloride] was tested, and the “motility inhibition on day 3” value was 7.86%. For C[N+](C)(C)CCO.[Cl-] [choline chloride], the “motility inhibition on day 3” value was 3.38%. For O=C(O)CSCC(=O)NC1CCSC1=O (configuration not stated) [erdosteine], the “motility inhibition on day 3” value was 5.07%. For Cc1cc2nc3c(=O)[nH]c(=O)nc-3n(CC(O)C(O)C(O)COP(=O)(O)O)c2cc1C (configuration not stated) [riboflavin 5-phosphate sodium], the “motility inhibition on day 3” value was < 0%. CC(C)CN(C[C@@H](O)[C@H](Cc1ccccc1)NC(=O)O[C@H]1CO[C@H]2OCC[C@H]21)S(=O)(=O)c1ccc(N)cc1 [Darunavir] was tested, and the “motility inhibition on day 3” value was < 0%. In the case of NCC[C@H](O)C(=O)N[C@@H]1C[C@H](N)[C@@H](O[C@H]2O[C@H](CN)[C@@H](O)[C@H](O)[C@H]2O)[C@H](O)[C@H]1O[C@H]1O[C@H](CO)[C@@H](O)[C@H](N)[C@H]1O [amikacin sulfate], the “motility inhibition on day 3” value is reported as 33.6%. O=C1c2cccc3c2[C@H](CCC3)CN1[C@@H]1CN2CCC1CC2 [Palonosetron Hydrochloride] was tested, and the “motility inhibition on day 3” value was 0.751%. COc1ccccc1OCC(O)COC(N)=O (configuration not stated) [methocarbamol] was tested, and the “motility inhibition on day 3” value was 8.19%. Cc1cc(N)c2ccccc2[n+]1CCCCCCCCCC[n+]1c(C)cc(N)c2ccccc21 [dequalinium chloride] was tested, and the “motility inhibition on day 3” value was 52.3%. Nc1ccn([C@@H]2CS[C@H](CO)O2)c(=O)n1 [lamivudine] was tested, and the “motility inhibition on day 3” value was 0.973%. With Nc1ccn([C@@H]2CS[C@H](CO)O2)c(=O)n1 the “motility inhibition on day 3” value was 0.151%. In the case of COC(=O)Nc1nc2cc([S+]([O-])c3ccccc3)ccc2[nH]1 (configuration not stated) [oxfendazole], the “motility inhibition on day 3” value is reported as 19.3%.
